Laboratory results reported in patent US9783833B2, “Biocatalytic methods to convert cyclohexane oxidation process waste streams to useful products” (INVISTA NORTH AMERICA S.A. R.L., priority 2011, dated 2017).

System: wild-type Yarrowia lipolytica
Assay: Chemo-stat fermentation with cell retention using NVR as carbon and energy source
Conditions: for Synthesis (S), Catabolism (C), or Non-metabolized (NM): steady state, 2% (v/v) NVR, ~215 mL/h, biomass dilution rate ~0.025 h^-1
From the text: The experimental set-up provided for a NVR Feed, Nutrient Feed and Base Feed (12% (v/v) NH3 (aq.)) that was filter sterilized into the fermenter via peristaltic pumps. Furthermore, a peristaltic pump provided the necessary cross-flow retentate flow rate to the hollow fibre membrane, a peristaltic pump allowed withdrawal of permeate and a peristaltic pump allowed for a biomass bleed from the fermenter.
The chemo-stat's control philosophy entailed manual feed ratio control of the NVR Feed to Nutrient Feed rates, pH control via the Base Feed, temperature control via cooling water supply to the fermenter's jacket, fixed aeration & agitation rates via the respective feedback loops, fixed cross-flow rate via the retentate pump's variable speed drive, manual level control via the permeate pump and manual dilution rate control via the bleed pump.
The initial charge minimal media was prepared (6.7 g/L yeast base without amino acids+(NH4)2SO4, 15 g/L glucose, 75 mg/L citric acid (Mr.=210 g/mol), 5.8 g/L sodium citrate (Mr.=294.1 g/mol), 10.7 g/L K2HPO4 (Mr.=174 g/mol), 5.2 g/L KH2PO4 (M=136.1 g/mol), and 2 mL/L antifoam) and the Nutrient Feed was prepared (6.7 g/L yeast base without amino acids+(NH4)2SO4, 75 mg/L citric acid (Mr.=210 g/mol), 5.8 g/L sodium citrate (Mr.=294.1 g/mol), 10.7 g/L K2HPO4 (Mr.=174 g/mol), 5.2 g/L KH2PO4 (M=136.1 g/mol), and 2 mL/L antifoam). The control parameters for the fermenter were set up (A1 and A2: 1 vvm aeration, pH 7.0, DO calibration at pH 7.0 and 1 vvm to 100% saturation, 28° C., 750 rpm initial agitation until glucose depletion, 1250 rpm final agitation after glucose depletion, manual antifoam).
The fermenter was inoculated with a 10% (v/v) inoculum from a wild-type Yarrowia lipolytica shake flask that was grown overnight from a cryopreserved stock.

Structure (SMILES)	Synthesis (S), Catabolism (C), or Non-metabolized (NM)	accumulation in the broth (cell retention chemo-stat, 2% (v/v) effective NVR feed)
O=C(O)CCCCO [5-hydroxyvaleric acid]	S	
O=C(O)CCCCCO [6-hydroxycaproic acid]	S	
O=C(O)CCCC(=O)O [glutaric acid]	S	
O=C(O)CCC(=O)O [succinic acid]	S	
O=C1CCCCO1 [δ-valerolactone]		ca. 1.7 g/L
